Data reported in publication PMC10410066.
These are yes or no findings as the source states them, for the method shown. For some assays here: Binding seen in cells or lysates may run through a third protein. Some results given as binding are weak or reduced against the parent protein; the word gives no strength. Where a sequence is shown, tags or fusion partners need not be part of it.

Amino acid sequences for entries named in this document (tags omitted).
UniProt P67775: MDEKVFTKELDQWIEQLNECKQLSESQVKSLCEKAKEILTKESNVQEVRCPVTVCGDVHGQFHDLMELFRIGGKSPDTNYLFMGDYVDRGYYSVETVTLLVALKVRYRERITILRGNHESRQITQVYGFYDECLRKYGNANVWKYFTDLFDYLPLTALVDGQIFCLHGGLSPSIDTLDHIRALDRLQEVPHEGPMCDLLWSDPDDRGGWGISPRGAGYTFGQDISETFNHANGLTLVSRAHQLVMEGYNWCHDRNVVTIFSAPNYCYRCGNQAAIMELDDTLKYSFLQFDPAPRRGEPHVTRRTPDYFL

T1: inhibitor of nuclear factor kappa B kinase subunit beta (IKBKB), FLAG-tagged (UniProt O14920)
T1 sequence: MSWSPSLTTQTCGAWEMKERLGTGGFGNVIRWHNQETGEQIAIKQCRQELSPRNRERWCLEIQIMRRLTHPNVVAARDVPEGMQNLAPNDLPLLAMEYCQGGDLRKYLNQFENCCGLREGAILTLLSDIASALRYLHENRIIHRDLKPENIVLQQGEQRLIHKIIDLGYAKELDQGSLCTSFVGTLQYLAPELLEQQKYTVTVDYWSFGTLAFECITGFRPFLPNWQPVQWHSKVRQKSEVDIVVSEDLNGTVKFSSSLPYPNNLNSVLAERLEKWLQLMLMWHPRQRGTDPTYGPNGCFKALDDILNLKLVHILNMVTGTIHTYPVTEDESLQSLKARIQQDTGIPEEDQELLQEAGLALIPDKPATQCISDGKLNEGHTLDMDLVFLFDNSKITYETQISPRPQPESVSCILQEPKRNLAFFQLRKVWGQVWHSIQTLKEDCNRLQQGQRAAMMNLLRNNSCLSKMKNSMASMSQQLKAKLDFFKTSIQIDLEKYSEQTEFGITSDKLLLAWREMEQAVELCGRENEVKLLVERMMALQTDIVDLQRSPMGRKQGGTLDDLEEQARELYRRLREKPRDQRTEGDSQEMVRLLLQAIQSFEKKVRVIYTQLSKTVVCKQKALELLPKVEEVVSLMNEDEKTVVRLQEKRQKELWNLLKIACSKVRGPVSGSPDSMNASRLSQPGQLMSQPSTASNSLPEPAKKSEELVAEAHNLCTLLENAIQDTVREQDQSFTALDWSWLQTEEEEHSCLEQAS

B1: inhibitor of nuclear factor kappa B kinase subunit beta (IKBKB), FLAG-tagged (enzyme, UniProt O14920 1-756)
chain: T1 sequence

Experiments:
[1] = target: T1, inhibitor of nuclear factor kappa B kinase subunit beta (IKBKB), FLAG-tagged; assay: co-IP; lysates of HEK293T cells overexpressing IKBKB-FLAG; anti-FLAG (mouse) antibody on Dynabeads Protein G, unrelated anti-GFAP antibody as mock; blot with anti-FLAG and anti-PP2A
[2] = target: protein phosphatase 2A (PP2A), endogenous (human (endogenous in HEK293T)) (UniProt P67775); assay: ELISA; anti-PP2A as capture antibody on the plate, anti-FLAG-D2 as detection antibody; HEK293T lysates transfected with or without IKBKB-FLAG; 1 h at RT; read on the Erenna Immunoassay System

| Molecule | binding [1] | binding [2] |
| --- | --- | --- |
| protein phosphatase 2A (PP2A), endogenous (from UniProt P67775 1-309) (enzyme) | binds | – |
| B1 | – | binds |
